The structures appear in SMILES notation. The list shows a part of the results. Further columns of the screen follow, without active or inactive calls. Most of these compounds were active or inconclusive in the main read-out, so they are no random draw. Words in brackets tell the shape of the fitted curve; partial curves, single points and poor fits give uncertain potencies.

As a reminder, the AC50 is the concentration at which the activity in the assay is half-maximal.

The nature of this test: Cell signaling CRE-BLA (Fsk stim). The settings on record: CHO CRE-bla reporter (cAMP response element driving beta-lactamase), forskolin EC10, beta-lactamase ratio; measured here: 460 nm blue channel. Summed up:
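CRE-bla CHO cells stimulated with EC10 NKH 477 (water-soluble forskolin) and compound titrations, 3 h at 37C; beta-lactamase read with CCF4 after 2 h at room temperature. Activity from 460/530 nm emission ratio, AC50 values for positive or negative modulation.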
`CC(C)[C@@H]1C(=O)N(S(C)(=O)=O)[C@H]2CCN(C(=O)/C=C\CN3CCCCC3)[C@@H]12`: the AC50 is 31.6 µM [falling, single point].

As for `CN(C)C(=O)c1ccc(-c2nc(Nc3ccccc3)c3ccccc3n2)cc1`, the AC50 is 3.16 µM [rising, full curve].

As for `CCN(CC)S(=O)(=O)c1ccc2nnn(OCC(=O)Nc3cccc(C#N)c3)c2c1`, the AC50 was 12.6 µM [rising, single point].

Consider `CCOc1ccc(OCC)c(NC(=O)C2CCCN(c3ncccn3)C2)c1` (configuration not stated), for which the AC50 was 10 µM [rising, single point].

In the case of `CCN(C(=O)Cc1cccs1)c1nnc(-c2cc(OC)c(OC)c(OC)c2)s1`, the half-maximal activity concentration (AC50) is 10 µM [rising, partial curve].

On to `CC1CN(C(=O)Nc2ccc3snnc3c2)c2ccccc21` (configuration not stated), for which the AC50 is 25.1 µM [falling, single point].

As for `O=C(CSc1ccc2nnc(-c3ccncc3)n2n1)Nc1ccc2c(c1)OCO2`, the AC50 is 10 µM [rising, single point].

As for `O=C(CCN1CCN(CCO)CC1)Nc1ccc(F)c(F)c1`, the AC50 is 0.501 µM [rising, full curve, poor fit].

Regarding `COc1ccc(-c2nnc3sc(C4CCCCC4)nn23)cc1OC`, the half-maximal activity concentration (AC50) is 1 µM [rising, full curve].

For `C1=CC2C3C=CC(C3)C2C1` (configuration not stated), the AC50 is 1 µM [falling, full curve, poor fit].

Consider `CCOC(=O)c1c(NC(=O)COC(=O)Cn2cnc3ccccc32)sc(C)c1C`, for which the AC50 is 10 µM [rising, single point].

In the case of `CN(C)c1ncc2nc(-c3ccc(F)cc3)c(=O)n(C3CC3)c2n1`, the AC50 is 2.51 µM [rising, full curve].

As to `Cc1cc(C)c(C#N)c(SCC(=O)c2cccs2)n1`, the concentration at half-maximal activity (AC50) was 15.8 µM [rising, partial curve].

On to `Cc1ccc(Cn2c(=N)c(C(=O)NCc3ccco3)cc3c(=O)n4ccccc4nc32)cc1`, for which the AC50 is 10 µM [rising, partial curve].

With `Cc1ccc(P(=O)(O)c2ccc(C)cc2)cc1`, the AC50 is 0.00316 µM [falling, full curve, poor fit].

Turning to `CCn1c(=O)n(CC(=O)Nc2cc(OC)ccc2OC)c(=O)c2ccccc21`, the AC50 was 10 µM [rising, partial curve].

Take `COC(=O)C1=C(C)NC2=C(C(=O)c3ccccc32)C1c1ccc(-c2ccc(C(=O)O)cc2)o1` (configuration not stated): the AC50 was 0.398 µM [rising, full curve].

Regarding `COc1ccc(-n2c(=O)c(-c3ccccc3)nc3cnc(N4CCOCC4)nc32)cc1`, the concentration at half-maximal activity (AC50) is 2.51 µM [rising, full curve].

Turning to `CCOC(=O)C(C)Sc1nnc(CNC(=O)c2ccc(OC)cc2)n1C1CCCCC1` (configuration not stated), the AC50 is 0.0316 µM [rising, full curve, poor fit].

Consider `Cc1cccc(N2CCN(C(=O)c3cn(C)c(=O)c4c3c3ccccc3n4C)CC2)c1C`, for which the concentration at half-maximal activity (AC50) is 0.316 µM [falling, full curve, poor fit].

As to `O=C(NC1CCCCC1)c1cc2nc3c(c(C(F)(F)F)n2n1)CCCC3`, the half-maximal activity concentration (AC50) was 12.6 µM [rising, partial curve].

With `Cc1cc(C)c2cc(CN(CCO)Cc3nnnn3Cc3ccccc3)c(=O)[nH]c2c1`, the AC50 was 12.6 µM [falling, partial curve].

`COCCNC(=O)CCSCc1ccccc1F`: the AC50 was 12.6 µM [falling, single point].

For the molecule `CCOC(=O)Nc1ccc2c(c1)N(C(=O)N(C)C)c1ccccc1CC2`, the AC50 is 1.26 µM [rising, partial curve].

On to `COc1cc(C(=O)OCC(=O)NC2CCCC2)cc(NC(=O)c2ccco2)c1OC`, for which the AC50 is 0.126 µM [falling, full curve, poor fit].

For the molecule `O=C(CN1C(=O)NC2(CCCCCCC2)C1=O)N1CCOCC1`, the half-maximal activity concentration (AC50) is 3.98 µM [falling, partial curve].

Turning to `COc1ccc(C2C(C(=O)c3sc(C)nc3C)=C(O)C(=O)N2CCCn2ccnc2)cc1` (configuration not stated), the half-maximal activity concentration (AC50) is 25.1 µM [rising, single point].

In the case of `N#Cc1nc(-c2ccc(F)cc2)oc1NCc1cccc2c1OCO2`, the AC50 is 12.6 µM [rising, partial curve].

With `CCOC(=O)c1ccc(NS(=O)(=O)c2c(C)n(C)c(=O)n(C)c2=O)cc1`, the AC50 was 10 µM [rising, single point].

Regarding `CC(C)(C)c1ccc(O)c(CN(Cc2cc(C(C)(C)C)ccc2O)c2ccccc2)c1`, the AC50 was 5.01 µM [rising, single point].

`CS(=O)(=O)Nc1cccc(-c2nc(NCc3cccnc3)c3ccccc3n2)c1`: the concentration at half-maximal activity (AC50) is 3.16 µM [rising, full curve].

As for `c1ccc(Nc2ncnc3c2oc2ccccc23)cc1`, the half-maximal activity concentration (AC50) is 10 µM [rising, single point].

`COCCNc1ncnc2ccc(-c3cccc(NS(C)(=O)=O)c3)cc12`: the AC50 is 0.158 µM [rising, full curve, poor fit].

As for `COc1cc(C(=O)Nc2cc(C)c(OCC(=O)N3CCOCC3)c(C)c2)cc(OC)c1OC`, the AC50 is 10 µM [rising, partial curve].

On to `CCn1c(=O)cc(SCC(=O)NCc2ccccn2)c2ccccc21`, for which the AC50 is 10 µM [rising, partial curve].

As to `CCS(=O)(=O)Nc1ccc(Cc2ccncc2)cc1`, the half-maximal activity concentration (AC50) was 2.51 µM [falling, partial curve].

For the molecule `Cc1ccc(C(=O)N2CCN(C(=O)CN3CCOCC3)C2)cc1`, the concentration at half-maximal activity (AC50) is 0.501 µM [rising, full curve].

Turning to `CCOC(=O)c1ccc(NS(=O)(=O)c2ccc3[nH]c(=O)[nH]c3c2)cc1`, the concentration at half-maximal activity (AC50) was 0.631 µM [rising, full curve, poor fit].

Turning to `O=C1C2C3C=CC(CO)(O3)C2C(=O)N1c1ccccc1-c1ccccc1` (configuration not stated), the AC50 is 1 µM [falling, full curve].

As for `CC1C2CC(CC1(C)C)N(C(=O)Nc1ccc3nccnc3c1)C2` (configuration not stated), the AC50 was 25.1 µM [rising, single point].

On to `CCOC(=O)C1CCN(S(=O)(=O)c2ccc(-n3cnnn3)c(C)c2)CC1`, for which the half-maximal activity concentration (AC50) is 5.01 µM [falling, single point].

In the case of `O=C(Oc1cccc(N2C(=O)CCC2=O)c1)C1CC(=O)N(c2ccc(F)cc2)C1` (configuration not stated), the AC50 was 15.8 µM [falling, partial curve].

The values above are taken from PubChem BioAssay AID662 (National Center for Advancing Translational Sciences (NCATS), 2007).
